PubChem BioAssay AID686943, Drosophila RNAi Screening Center | 2013

Screen: 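Fly genes whose loss alters ERK activation after insulin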 (primary screen)
Cell system: Drosophila S2R+ haemocyte-like cells expressing YFP-tagged ERK (Rolled)
Reagents: long dsRNA against Drosophila genes
Challenge: insulin stimulation versus unstimulated cells; dose and duration not given
Measured: 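Per-plate z-scores of phospho-ERK immunostaining normalised to YFP-tagged ERK, measured with and without insulin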
Direction: replicate 1, z-score of dpERK with insulin and replicate 2, z-score of dpERK with insulin: higher = more active ERK per ERK-YFP after insulin; replicate 1, z-score of dpERK under basal conditions: higher = more basal active ERK per ERK-YFP; replicate 1, z-score of ERK-YFP with insulin: higher = more YFP-tagged ERK signal
In all, the deposit lists about 23,000 reagents; below is a random part of those with a known target gene and a result. 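Extra replicates exist only for a retested subset of genes; insulin dose and duration not given; both raised and lowered dpERK matter.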 The numbers tell different reagents against one gene apart. A plus sign joins genes that one reagent is predicted to hit. Reagent sequences are not shown. Not given: the amount of reagent, the time to read-out.

Target gene | reagent | replicate 1, z-score of dpERK with insulin | replicate 2, z-score of dpERK with insulin | replicate 1, z-score of dpERK under basal conditions | replicate 1, z-score of ERK-YFP with insulin
UQCR-6.4 (Ubiquinol-cytochrome c reductase 6.4 kDa subunit) | 1 | 0.79 | -0.01 | 0.09 | 0.55
CG14301 | 1 | -0.5 | -0.42 | -0.23 | -0.4
Pex1 (Peroxin 1) | 1 | 0.39 | -0.06 | 0.16 | -0.3
MESR6 (Misexpression suppressor of ras 6) | 1 | -0.27 | -0.56 | -0.86 | 0.24
sws (swiss cheese) | 1 | 0.9 | -0.28 | -0.21 | 0.4
puc (puckered) | 1 | -4.3 | -3.47 | -0.39 | -2.58
Ppr-Y | 1 | 0.41 | -0.06 | -1.52 | 0.11
CG12688 (retired record) | 1 | 1.26 | -0.73 | 0.93 | -1.39
CG12688 (retired record) | 2 | 0.08 | -0.66 | -0.23 | 0.54
CG17508 | 1 | 0.33 | 0.53 | 0.74 | 0.22
CG3342 | 1 | -0.44 | 0.51 | 5.49 | 0.44
CG13532 | 1 | 0.76 | 0.66 | 0.73 | -0.13
CG8379 | 1 | 0.46 | 1.45 | 0.65 | 0.54
CG42502 + CG10570 | 1 | -0.61 | -0.53 | 2.03 | -0.44
CG2233 | 1 | -0.81 | -0.04 | -0.46 | -0.07
ArgRS-m (Arginyl-tRNA synthetase, mitochondrial) | 1 | -0.29 | -1.1 | -1.1 | 0.41
ND-18 (NADH dehydrogenase (ubiquinone) 18 kDa subunit) | 1 | 0.21 | -0.96 | -0.69 | -0.17
comm3 | 1 | 0.85 | -0.39 | -0.56 | -0.35
comm3 | 2 | -0.27 | 0.06 | -0.81 | -0.54
comm3 | 3 | 0.05 | 1.4 | -1.05 | -0.36
CG7848 | 1 | -0.52 | 0.29 | 0.45 | 0.61
CG42269 | 1 | 0.68 | 0.98 | -0.03 | 0.83
CG42269 | 2 | -0.07 | -0.16 | 0.8 | 0.67
